Results reported in US6429288B1 (Roche Diagnostics GmbH, priority 1997, dated 2002).

Assay: general procedure: Fmoc solid-phase peptide synthesis; Fmoc-L-Trp-TCP
Details: whole synthesis, scale 0.03 mmol

Substance	final HPLC purity [%]	isolated mass [mg]
T-Ada-Aba-W	>95	2.7
T-Ada-Ava-W	>95	2.7
T-Ada-SAW	>98	2.6
